Laboratory results from PubChem BioAssay AID1259415 (National Center for Advancing Translational Sciences (NCATS), 2018).
Hit rate of the full screen: of about 410,000 compounds, about 18,000 (4.4%) were called active. Inconclusive means that the source gave no clear call. Such entries were picked first, then a sample of the others. Cut-off read from the data, not from the text of the source: active = activity change below about -60%; inconclusive = no clear call, values can overlap the other calls; inactive = above about -39%.

assay: qHTS Assay for inhibitors of the human cytomegalovirus (HCMV); conditions: HFF cells, HCMV-luciferase reporter, 72 h; at 57.5 µM; stronger effect = lower value
Method in brief: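 Luciferase read-out from HCMV-luciferase-infected HFFs (MOI 1 PFU/cell) 72 h post infection at 37C; compounds added after 16 h cell attachment; activity normalized between buffer-only basal and Salinomycin (10uM) inhibitor controls.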
% is set by controls: 0 for no effect and ±100 for the full control effect.

| SMILES | activity change, negative = inhibition |
| --- | --- |
| Cc1cc(C)c(Cn2c3ccccc3c3cnn(CC(=O)NCCN4CCOCC4)c(=O)c32)c(C)c1 | inconclusive: -53.1% |
| O=C(Nc1ccc2ccccc2c1)c1ccccc1O | active: -99.2% |
| COC(=O)C1(O)CC(CC(C)C)=NN1C(=O)c1ccccc1 (stereo unspecified) | inconclusive: -59.2% |
| Nc1ccc2cc3[nH]c4cc(N)ccc4c3nc2c1 | active: -98.5% |
| CC1=C(C(=O)N(C)C)CC(CC(=O)NCCCN(C)C)C(=O)N1CCCN1CCCC1=O (stereo unspecified) | inactive: 4.69% |
| Cc1cc(NC(=O)CN(C)CC(=O)Nc2ccc(Cl)cc2)no1 | inactive: 11.5% |
| CC12CCC(=O)N1C(C(=O)N1CCN(c3cccc(Cl)c3)CC1)CS2 (stereo unspecified) | inconclusive: -46.5% |
| O=C(NC(=S)NCC1COc2ccccc2O1)c1ccccc1 (stereo unspecified) | inconclusive: -44.2% |
| O=C(COC(=O)CCN=C1NS(=O)(=O)c2ccccc21)NC1CCCCCCC1 | inconclusive: -53.1% |
| CCOC(=O)C1CCN(c2c(NCCN3CCCCC3C)c(=O)c2=O)CC1 (stereo unspecified) | inconclusive: -43.4% |
| C/C(=N\NC(=O)c1cc(C)[nH]n1)c1ccc(-c2ccccc2)cc1 | inactive: -11.7% |
| Cc1ccc(C(=O)N2C3C=CC(C3)C2(C(F)(F)F)C(F)(F)F)cc1 (stereo unspecified) | inconclusive: -58.4% |
| Cc1ccc(-c2nc3c4ccccc4ccn3c2Cc2cccc(F)c2)cc1 | inactive: 20.5% |
| CCN(C(=O)c1cnc(N2CCOCC2)c2ccccc12)c1cc(C)ccc1C | inactive: -0.411% |
| C#CCOCCOCCOCCNc1nc(N2CCN(C(=O)C([C@@H](C)O)n3cc([C@@H](N)CCCCN)nn3)CC2)nc(N2CCN(C(=O)[C@H](CO)n3cc([C@@H](N)C(C)C)nn3)CC2)n1 (stereo partly specified) | inconclusive: -42.2% |
| CCN1C(=S)SC(=O)C1=C1C=C(C)N(CCO)C(C)=C1 | active: -67.9% |
| O=C(NC1CCS(=O)(=O)C1)N1CCCCC1 (stereo unspecified) | inactive: 14.9% |
| COc1ccc(Nc2nc(-c3ccccc3)nc3ccccc23)cc1 | inconclusive: -52.1% |
| Cc1ccc(-n2c(C)nc3oc4ccccc4c(=O)c3c2=O)cc1 | inactive: 133% |
| O=C(O)c1ccc2c(c1)N(Cc1ccc(F)cc1Cl)C(=O)c1ccccc1S2 | inconclusive: -53.2% |
| COC(=O)c1cc(C#N)c(N(C)Cc2ccccc2)nc1C | inactive: 0.465% |
| COc1ccc2nc(N(Cc3cccnc3)C(=O)COc3ccccc3)sc2c1 | inactive: 42% |

Not a retest: entries from further up.

| SMILES | activity change, negative = inhibition |
| --- | --- |
| CCN(C(=O)c1cnc(N2CCOCC2)c2ccccc12)c1cc(C)ccc1C | inactive: -0.411% |
| C#CCOCCOCCOCCNc1nc(N2CCN(C(=O)C([C@@H](C)O)n3cc([C@@H](N)CCCCN)nn3)CC2)nc(N2CCN(C(=O)[C@H](CO)n3cc([C@@H](N)C(C)C)nn3)CC2)n1 (stereo partly specified) | inconclusive: -42.2% |

The list continues:

| SMILES | activity change, negative = inhibition |
| --- | --- |
| CCOc1ccccc1N(CC(=O)Nc1ccccc1C(=O)N1CCOCC1)S(C)(=O)=O | inconclusive: -43.7% |
| CCOc1cccc(-c2nn(-c3ccccc3)cc2/C=C(/C#N)C(=O)NCCCn2ccnc2)c1 | inconclusive: -55.4% |
| CC(C)C(=O)NC(=S)Nc1ccc(S(=O)(=O)N(C)C)cc1 | inconclusive: -48.2% |
| COC(=O)c1ccc(C(=O)OCCCc2nc3ccc(N)cc3[nH]2)cc1 | inactive: 22.2% |
| Cc1ccc(S(=O)(=O)N2CCC(=O)N(CCOC(=O)Nc3cccc(Cl)c3)CC2)cc1 | active: -64.3% |
| COc1ccc(N2CCN(C(=O)Cn3nc(Cc4cccnc4)c4ccccc4c3=O)CC2)cc1 | inconclusive: -52.6% |
| Cc1ccc(Nc2ncnc3c2nc2n3CCCC2)c(Br)c1 | inactive: -9.33% |
| O=C(CN(Cc1cccs1)C(=O)CNC(=O)c1ccco1)NC1CCCCC1 | inactive: -14.1% |
| CCOC(=O)c1c(NC(=O)C2=COCCO2)sc2c1CCN(C(=O)OC)C2 | inconclusive: -51.7% |
| CCCSc1nnc(NC(=O)Nc2ccccc2)s1 | active: -99.4% |
| CCCn1c(SCC(=O)N2CCCCC2)nnc1C(C)C | inconclusive: -46.6% |
| CCOc1ccccc1NC(=O)c1cc(C(=O)c2cc(OC)ccc2O)coc1=N | inactive: -22.6% |
| COc1ccc(/C=N/NC(=O)c2ccc(CSc3nc(C)cc(C)n3)cc2)c(OC)c1OC | inconclusive: -50.3% |
| N=C(N)SCc1ccccn1 | inconclusive: -41.2% |
| Cn1c(SCC(=O)Nc2ccc(NC(=O)c3cccc(F)c3)cc2)nnc1-c1ccncc1 | inactive: 25.6% |
| Cc1ccc(N2CC(C(=O)Nc3ccc(C)c(S(=O)(=O)N(C)C)c3)CC2=O)cc1 (stereo unspecified) | inactive: 9.83% |
| CC(C)c1csc(CN2CCC(N3CCC(C(=O)NCC4CCCO4)CC3)CC2)n1 (stereo unspecified) | inconclusive: -41.5% |
| CCn1c(C(=O)N2CCCC(C(=O)NCCCc3ccccc3)C2)cc2sccc21 (stereo unspecified) | active: -70.3% |
| Cc1c(-c2ccccc2)n(-c2ccccc2O)c2nc3c(c(=O)n(C)c(=O)n3C)n12 | active: -63.5% |
| COc1ccc(-c2noc(CCC(=O)NC3CCCC3)n2)cc1 | inconclusive: -45.6% |
| CN1CC2(C)OC(=O)C(Cl)=C2CC1c1ccccc1 (stereo unspecified) | inconclusive: -49.6% |
| CN(Cc1ccccc1)C(=O)c1cccc(N2C(=O)C3CC=CCC3C2=O)c1 (stereo unspecified) | inconclusive: -49% |

| SMILES | activity change, negative = inhibition |
| --- | --- |
| Cc1ccc(C(=O)Nc2ccc(C(=O)OCc3cc(=O)n4c5c(sc4n3)CCCC5)cc2)cc1 | inconclusive: -50.2% |
| CCn1c(=O)c(-c2cc(=O)[nH][nH]2)c(O)c2ccccc21 | inconclusive: -53.6% |
| COC(=O)[C@H](Cc1ccccc1)N(Cc1ccccc1)S(=O)(=O)N(Cc1ccccc1)[C@@H](Cc1ccccc1)C(=O)OC | active: -96.4% |
| CCOc1ccccc1C(=O)Nc1cc(-c2ccc(C)cc2)no1 | inactive: 70.9% |
| COc1ccc(Cl)cc1NC(=O)CN(C)C(=O)c1cc(-c2cccs2)nn1-c1ccccc1 | inactive: -21.5% |
| CCCc1cc(C(=O)Nc2ccc(F)c(Cl)c2)no1 | inactive: 16.4% |
| CCc1nccn1CCC(=O)NC1CCCc2c1cnn2-c1ccc(F)cc1F (stereo unspecified) | inconclusive: -47.8% |
| O=C(NCCCNC(=O)c1ccc(-c2cccc(Cl)c2)o1)c1cnccn1 | inconclusive: -50.6% |
| Cc1ccc(C(=O)N2CCN(S(=O)(=O)c3ccccc3C#N)CC2)cc1S(=O)(=O)N1CCOCC1 | inactive: 0% |
| Cc1cc(C)c(C(=O)COC(=O)c2cccc(S(=O)(=O)NCc3ccccc3)c2)cc1C | inconclusive: -44.7% |
| Cc1ccsc1/C=N/Nc1ncc(Cl)cc1Cl | inconclusive: -49.7% |
| CCOC(=O)C1(Cc2ccc(Cl)cc2)CCN(Cc2cn(CC)nc2C)CC1 | inconclusive: -49.4% |
| COc1ccccc1CNC(=O)c1oc2ccc3c(c2c1C)C(=O)CC(C)(C)O3 | inconclusive: -47.7% |
| CC(C)OC(=O)/C=C1\C[C@@H](c2ccccc2C(F)(F)F)O[C@@H](c2ccccc2C(F)(F)F)O1 | inactive: 0.475% |
| N#C/C(C(=O)NCc1ccco1)=C1/SC=C(c2ccccc2)N1c1ccccc1 | inconclusive: -49.5% |
| Cc1c(C)n(C(=O)CN2CCC(C(N)=O)CC2)c2ccccc12 | inconclusive: -45.3% |
| O=C(C[n+]1ccc(/C=N/O)cc1)N(Cc1ccccc1)Cc1ccccc1 | active: -68.2% |
| CC1=Nc2cc(C(=O)NCCc3ccc(Cl)cc3)ccc2Sc2c(C)ccc(C)c21 | active: -87.7% |
| COc1ccc(CCn2c(-n3nc(C)cc3C)nc3c2c(=O)[nH]c(=O)n3C)cc1 | inconclusive: -48.8% |
| C=CC1CN2CCC1CC2[C@@H](OC(=O)c1ccc(OC)cc1)c1ccnc2ccccc12 (stereo partly specified) | inactive: -19.7% |
| CCCCn1c(N)c(N(CC(C)C)C(=O)c2ccco2)c(=O)[nH]c1=O | inconclusive: -44.2% |
| Cc1nc(-c2ccc(NC(=O)c3ccccc3)cc2)cs1 | inconclusive: -40.5% |

| SMILES | activity change, negative = inhibition |
| --- | --- |
| O=C(CNC(=S)NC(=O)c1ccc(F)cc1)c1ccccc1 | inactive: 27% |
| COc1cccc(Cn2c3ccc(NC(=O)CCc4ccc(F)cc4)cc3c(=O)n2C)c1 | active: -85.2% |
| O=C(CCl)Nc1ccc2c(c1)OCO2 | active: -61.4% |
| O=C(NC(=S)Nc1ncc(Br)cc1Br)c1cncc(Br)c1 | inconclusive: -47.2% |
| CSc1nc(-c2ccc(Cl)cc2Cl)[nH]c(=O)c1C#N | inconclusive: -52.9% |
| C=CCN(C(=O)c1csnn1)C(C(=O)NC1CCCC1)c1ccc(F)cc1 (stereo unspecified) | inconclusive: -48.6% |
| COC(=O)c1nn(-c2ccccc2)c(=O)cc1O | inconclusive: -49.8% |
| CC1=C(C(=O)OC2CCCCCC2)C(c2cccc(Cl)c2)CC(=O)N1 (stereo unspecified) | inconclusive: -50.8% |
| O=C(Nc1ccc(NC(=O)c2ccccc2Cl)nc1)c1ccncc1 | inconclusive: -42.1% |
| CCc1ccc(-c2cc(C)no2)cc1S(=O)(=O)N1CCN(c2ccccc2F)CC1 | inactive: -29.7% |
| Cc1oc2c(C)c3oc(=O)c(CCC(=O)O)c(C)c3cc2c1-c1ccccc1 | inactive: -10.3% |
| Cc1ccccc1C(=O)Nc1c2c(nn1C(C)(C)C)CS(=O)(=O)C2 | inactive: -11.1% |
| O=c1ncn(C2CCCCC2)c(=O)[nH]1 | inactive: -19.5% |
| Cc1cccc(C(=O)Nc2ccc(C(=O)N/N=C/c3cccc(C)n3)cc2)c1 | inconclusive: -48.4% |
| COc1cc(C2C(C(=O)c3ccc(C)o3)=C(O)C(=O)N2c2cc(C)on2)cc(Br)c1O (stereo unspecified) | inconclusive: -42.8% |
| Cc1nc2cc(-c3ccccc3)sc2c(=O)n1N | active: -88.9% |
| COc1cc2c(cc1OC)CN(C(=O)C1CCCN(C(=O)c3ccc(Cl)cc3)C1)CC2 (stereo unspecified) | inconclusive: -42% |
| Cc1nc(NCCN2CCOCC2)c2nnn(Cc3ccccc3Cl)c2n1 | inconclusive: -45.3% |
| CCOc1ccc(NC(=O)CSC2=NCCN2)cc1 | inconclusive: -40.9% |
| Cc1cc(-c2ccc(S(=O)(=O)Nc3ccc(Cl)cc3C)cc2)on1 | active: -77.7% |
